In PubChem BioAssay AID504444 (National Center for Advancing Translational Sciences (NCATS), 2011):
About 7,500 (2.1%) of roughly 360,000 compounds were called active. The shares of active, inactive and inconclusive entries below differ from those in the screen. The call rests on the fitted dose curve; in most records, active means well fitted inhibition curve with a large enough effect; inconclusive means small, poorly fitted or top-dose-only effect, or effect the other way; inactive means flat fitted curve, though single readings scatter. Potencies beside an inconclusive call are fits to weak or partial responses and may not hold up.

Assay: Nrf2 qHTS screen for inhibitors; further: nearly all actives have a fitted effect of over 60% in size
Details: A549 ARE-Fluc reporter, luciferase luminescence, 18-24 h; series mostly up to 46 µM
Method in brief: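 Concentration-response testing used A549 ARE_Fluc cells at 5000 cells/well. Following an 18-24 h compound incubation, viability was read by fluorescence (Ex 405/Em 525) and luciferase output by luminescence.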
Potency means the concentration at half of the fitted maximal effect.

Row | Structure (SMILES) | Potency
1 | CCSc1nnc(NC(=O)c2ccc3ccccc3n2)s1 | inconclusive: 3.66 µM [activator, partial curve]
2 | COc1ccc(Nc2oc(-c3ccc(COc4cccc(C)c4)o3)nc2C#N)cc1 | inactive
3 | CNC(=S)NNC(=O)c1ccc(=O)n(Cc2ccc(Cl)cc2Cl)c1 | inconclusive: 29.1 µM [falling, single point]
4 | COc1ccc(CCNC(=O)Cc2c(C)c3cc4c(C(C)(C)C)coc4c(C)c3oc2=O)cc1OC | inconclusive: 29.1 µM [falling, single point]
5 | O=C(NCc1ccc2c(c1)OCO2)c1ccc2c(c1)N(Cc1c(F)cccc1Cl)C(=O)CS2 | inconclusive: 20.6 µM [falling, single point]
6 | O=C(CSC1=NCCS1)Nc1nc(-c2ccccc2)cs1 | inconclusive: 25.9 µM [activator, partial curve]
7 | Cc1cccc(S(=O)(=O)Nc2cccc(-c3ccc(N4CCCCC4)nn3)c2)c1 | inconclusive: 29.1 µM [falling, single point]
8 | Cn1cc([N+](=O)[O-])c(C(=O)NCc2ccco2)n1 | inconclusive: 5.17 µM [falling, full curve, poor fit]
9 | Cn1c(=O)c(C(=O)CN2CCCCCC2)c(N)n(Cc2ccccc2)c1=O | inconclusive: 29.1 µM [activator, single point]
10 | Cc1cc(C(=O)N2CCN(c3ccc([N+](=O)[O-])cc3)CC2)co1 | inconclusive: 18.4 µM [falling, partial curve, poor fit]
11 | CCc1nnc2c(N3CCN(c4cccc(C)c4)C(C)C3)nc3ccccc3n12 (configuration not stated) | inconclusive: 23.1 µM [falling, single point]
12 | Cc1ccc(S(=O)(=O)Oc2ccc(C3C4=C(CCCC4=O)N(CCC(=O)O)C4=C3C(=O)CCC4)cc2Cl)cc1 | inactive
13 | COc1cc(/C=C/c2sc3ccccc3[n+]2CCCS(=O)(=O)[O-])ccc1O | inconclusive: 13 µM [falling, partial curve]
14 | CCCCCCCNC(=O)C1(CC2CC(c3ccc(Cl)cc3)=NO2)CCN(C(=O)C2(C)CC2)CC1 (configuration not stated) | inconclusive: 29.1 µM [falling, single point]
15 | Cc1nn(C)c(Cl)c1NC(=O)OCc1ccc(Cl)cc1Cl | active: 16.4 µM
16 | CC(CCc1ccco1)NC(=O)CSc1cc(=O)n(C)c2ccccc12 (configuration not stated) | inconclusive: 25.9 µM [falling, single point]
17 | CS(=O)(=O)N1CCc2cc(S(=O)(=O)Nc3ccc4c(c3)OCCO4)ccc21 | inconclusive: 8.2 µM [falling, partial curve, poor fit]

Random excerpt: 2 compounds from above
Row | Structure (SMILES) | Potency
12 | Cc1ccc(S(=O)(=O)Oc2ccc(C3C4=C(CCCC4=O)N(CCC(=O)O)C4=C3C(=O)CCC4)cc2Cl)cc1 | inactive
10 | Cc1cc(C(=O)N2CCN(c3ccc([N+](=O)[O-])cc3)CC2)co1 | inconclusive: 18.4 µM [falling, partial curve, poor fit]
